# Among all 330,000 compounds or so, about 1,000 (0.3%) were called active. Inconclusive means that the source gave no clear call. Such entries were picked first, then a sample of the others. Calls follow the shape of the dose curve; as a rule, active = well fitted inhibition curve with a large enough effect; inconclusive = small, poorly fitted or top-dose-only effect; inactive = no such curve, though single readings can be large or run the other way; tested in mouse RAW 264.7 cells. Where the call is inconclusive, the potency comes from a doubtful curve fit.
# Assay: qHTS for Inhibitors of Cell Surface uPA Generation; also: nearly all actives have a fitted effect of over 55% in size
# Settings: cell surface uPA generation assay; series mostly up to 38.3 µM
# Summary of the method: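 Intracellular ATP by ATPlite luminescence serves as read-out: inhibited cell-surface uPA generation prevents LF translocation, preserving ATP. Murine RAW 264.7 macrophages were treated 24 h at 37 C with five-fold serial dilutions, up to 38.3 uM final.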
# Potency is read from the fitted curve at half-maximal effect.
row,SMILES,Potency
1,Cc1ccc(-n2c(O)c(C=NCc3ccccn3)c3ccccc3c2=O)cc1C,"inconclusive: 11.2 µM [inhibitor, single point]"
2,O=C(Nc1cccnc1)c1ccc([N+](=O)[O-])s1,active: 4.47 µM
3,Cc1ccc(NS(=O)(=O)c2ccc(C(=O)NCc3ccncc3)cc2)cc1,inactive
4,N#CC1CC(c2ccccc2)Nc2cc(Cl)ccc2N1 (stereo not drawn),"inconclusive: 3.55 µM [inhibitor, partial curve, poor fit]"
5,c1ccc(CCc2nc3ccccc3[nH]2)cc1,"inconclusive: 12.6 µM [inhibitor, single point]"
6,Cc1ccc(-c2cc(C(=O)N3CCN(c4ccc(O)cc4)CC3)c3ccccc3n2)cc1,active: 10 µM
7,O=C(Nc1ccc([N+](=O)[O-])cc1)C(=O)Nc1cccc(C(=O)O)c1,"inconclusive: 1.58 µM [inhibitor, full curve, poor fit]"
8,CCc1c(C)sc2nc(C(C)C)nc(SCC(=O)N3CCc4ccccc4C3)c12,"inconclusive: 3.55 µM [inhibitor, single point]"
9,CC[C@@H](C)C(NC(=O)OC(C)(C)C)c1cn([C@@H](Cc2cc3ccccc3[nH]2)C(=O)N2CCN(C(=O)OC(C)(C)C)CC2)nn1 (stereo partly drawn),"inconclusive: 28.2 µM [inhibitor, single point]"
10,Cc1cc(Cl)c2oc(C(=O)N(C)CCc3cnn(C)c3)c(C)c2c1,inactive
11,COc1ccc(/C=N/NC(=O)c2ccc3ccccc3c2)cc1OS(=O)(=O)c1ccc(NC(C)=O)cc1,"inconclusive: 1.58 µM [inhibitor, full curve, poor fit]"
12,CN(C)S(=O)(=O)c1ccc(C(=O)Nc2cc3c(cc2C(=O)O)OCCCO3)cc1,inactive
13,O=C(O)Cc1cn(-c2ccccc2)nc1-c1ccccc1,inactive
14,CCCCc1c(C)c(C#N)c2nc3ccccc3n2c1NCCN(C)C,"inconclusive: 0.891 µM [inhibitor, partial curve, poor fit]"
15,O=C(NCCn1cc(SCc2ccccc2F)c2ccccc21)c1c(F)cccc1F,"inconclusive: 12.6 µM [inhibitor, single point]"
16,COc1ccc(-c2cn3c(C)c(C(=O)N4CCc5ccccc5C4)sc3n2)cc1,"inconclusive: 1 µM [inhibitor, partial curve, poor fit]"
17,O=C(N/N=C/c1ccccc1Cl)c1n[nH]c2c1CCCC2,"inconclusive: 1.78 µM [inhibitor, full curve, poor fit]"
18,Cc1ccc(C(=O)Nn2cnnc2)cc1Cl,"inconclusive: 35.5 µM [inhibitor, partial curve, poor fit]"
19,O=C(N/N=C(\Cc1ncc[nH]1)c1ccccc1)c1cccnc1,"inconclusive: 7.94 µM [inhibitor, partial curve, poor fit]"
20,COc1ccc(CCC(=O)NNC(=O)c2ccccn2)cc1OC,"inconclusive: 7.94 µM [inhibitor, single point]"
21,Cc1cccn2c(=O)c3cc(C(=O)NC4CCCC4)c(=N)n(CC4CCCO4)c3nc12 (stereo not drawn),"inconclusive: 8.91 µM [inhibitor, single point]"

row,SMILES,Potency
1,Cc1ccc(-c2csc3ncnc(-n4nnc5ccccc54)c23)cc1C,inactive
2,Cc1ccccc1-n1c(=O)n(Cc2ccco2)c(=O)c2[nH]cnc21,inactive
3,COc1ccccc1[C@H]1C(c2cccc(Cl)c2)=NN(c2ccccc2)[C@@H]1CO,"inconclusive: 10 µM [inhibitor, single point]"
4,c1ccc2c(NCCc3c[nH]c4ccccc34)c3ccccc3nc2c1,"inconclusive: 2.82 µM [inhibitor, partial curve, poor fit]"
5,O=C(C1=C[C@@H](c2ccc(C(F)(F)F)cc2)C[C@@H](OCc2ccc(CO)cc2)O1)N1CCN(Cc2ccccc2)CC1,"inconclusive: 12.6 µM [inhibitor, single point]"
6,CCOC(=O)C1CCCN(S(=O)(=O)c2ccc3c4c(cccc24)C(=O)N3CC)C1 (stereo not drawn),"inconclusive: 10 µM [inhibitor, partial curve]"
7,CCCn1c(C2CCCN2c2nc(-c3ccc(C)cc3)cs2)nc2ccccc21 (stereo not drawn),"inconclusive: 11.2 µM [inhibitor, partial curve, poor fit]"
8,O=c1nc2sc3ccccc3n2c(=O)n1-c1ccc(Cl)cc1,inactive
9,C[C@H](CO)N1C[C@H](C)[C@@H](CN(C)C(=O)Nc2ccc3c(c2)OCO3)Oc2c(NC(=O)Nc3ccc(C(F)(F)F)cc3)cccc2C1=O,"inconclusive: 12.6 µM [inhibitor, single point]"
10,CSc1nsc(/C=C/Nc2ccc(C(=O)O)cc2)c1C#N,inactive
11,COC(=O)c1ccc2c(=O)n(CCN3CCOCC3)c(SCC(=O)Nc3ccc(C)cc3)nc2c1,"inconclusive: 0.316 µM [inhibitor, full curve, poor fit]"
12,O=C1C=CC(=O)N1c1ccc2c(c1)C(NC(=O)C(F)(F)F)c1ccccc1-2 (stereo not drawn),"inconclusive: 3.98 µM [inhibitor, partial curve, poor fit]"
13,O=C(/C=C/c1ccc(O)c(O)c1)OC1C(O)CC(OC(=O)/C=C/c2ccc(O)c(O)c2)(C(=O)O)CC1O (stereo not drawn),inactive
14,COC(=O)c1cn(NC(=O)c2cc([N+](=O)[O-])ccc2F)c(=O)c2ccccc12,"inconclusive: 4.47 µM [inhibitor, partial curve, poor fit]"
15,CCc1cccc(CC)c1NC(=S)NCCc1c(C)[nH]c2ccc(C)cc12,"inconclusive: 12.6 µM [inhibitor, single point]"
16,COc1ccc(-c2nc(NCCCN(C)C)c3ccccc3n2)cc1,"inconclusive: 10 µM [inhibitor, partial curve]"
17,CSc1nc2cc(Oc3cccc(Cl)c3Cl)c(Cl)cc2[nH]1,"inconclusive: 7.08 µM [inhibitor, single point]"
18,COc1ccc(/C=N\NC(=O)c2ccccc2Br)cc1COc1ccccc1,"inconclusive: 12.6 µM [inhibitor, single point]"
19,Cn1nnnc1Sc1ncnc2scc(-c3ccc([N+](=O)[O-])cc3)c12,"inconclusive: 1 µM [inhibitor, partial curve, poor fit]"
20,COc1ccc(NS(=O)(=O)c2ccc(C(=O)N3CCN(c4ccc(F)cc4)CC3)cc2)cc1,"inconclusive: 7.08 µM [inhibitor, partial curve, poor fit]"
21,COCCNC(=O)c1cc(-c2cccs2)on1,"inconclusive: 12.6 µM [inhibitor, partial curve, poor fit]"

# 4 of the compounds above, as tab-separated lines:
row	SMILES	Potency
1	Cc1ccc(-c2csc3ncnc(-n4nnc5ccccc54)c23)cc1C	inactive
3	COc1ccccc1[C@H]1C(c2cccc(Cl)c2)=NN(c2ccccc2)[C@@H]1CO	inconclusive: 10 µM [inhibitor, single point]
5	O=C(C1=C[C@@H](c2ccc(C(F)(F)F)cc2)C[C@@H](OCc2ccc(CO)cc2)O1)N1CCN(Cc2ccccc2)CC1	inconclusive: 12.6 µM [inhibitor, single point]
13	O=C(/C=C/c1ccc(O)c(O)c1)OC1C(O)CC(OC(=O)/C=C/c2ccc(O)c(O)c2)(C(=O)O)CC1O (stereo not drawn)	inactive

# The list goes on:

row,SMILES,Potency
1,CCN(CC)CCCNc1cc(C)nc2cc(-c3cccs3)nn12,inactive
2,Cc1ccc(-n2nnc(-c3cccnc3Cl)n2)cc1,"inconclusive: 3.16 µM [inhibitor, full curve]"
3,CC(C)Oc1ccc(/C=N/NC(=O)c2nnn(-c3nonc3N)c2CN(C)c2ccccc2)cc1,"inconclusive: 12.6 µM [inhibitor, single point]"
4,Cc1csc(NC(=O)c2cncc(Br)c2)n1,"inconclusive: 11.2 µM [inhibitor, single point]"
5,O=c1[nH]c(=O)n([C@H]2C[C@H](O)[C@@H](CO)O2)cc1Br,"inconclusive: 1.12 µM [inhibitor, full curve]"
6,COc1ccc(CC2=CC(=O)c3ccccc3C2=O)cc1,"inconclusive: 28.2 µM [inhibitor, single point]"
7,Cc1nc(SCC(=O)Nc2nc3ccccc3s2)c(C#N)c(C)c1C,"inconclusive: 1.26 µM [inhibitor, full curve, poor fit]"
8,Cc1cc(C)cc(NC(=O)CCn2c(=O)c3cccn3c3ccccc32)c1,"inconclusive: 1.12 µM [inhibitor, single point]"
9,Cc1cc(C)n(-c2ncc(C#N)cn2)n1,inactive
10,CN(CC(=O)Nc1cccc(F)c1)C(=O)COc1ccc2c(c1)CCC2,"inconclusive: 7.94 µM [inhibitor, partial curve, poor fit]"
11,CCOc1ccc(Oc2ccc(S(=O)(=O)N3CCOCC3)cc2N)cc1,"inconclusive: 11.2 µM [inhibitor, partial curve]"
12,CCc1cccc(CC)c1NC(=S)NCCc1ccc(O)c(O)c1,"inconclusive: 12.6 µM [inhibitor, single point]"
13,C=CCOc1ccc(S(C)(=O)=O)cc1,"inconclusive: 1.12 µM [inhibitor, partial curve, poor fit]"
14,CCOc1ccc(C(=O)NNC(=O)CNC(=O)c2ccc(C)s2)cc1OC,"inconclusive: 2.82 µM [inhibitor, single point]"
15,O=C(/C=C/c1ccccc1)CC(O)(c1ccccc1)C(F)(F)C(F)F (stereo not drawn),"inconclusive: 12.6 µM [inhibitor, single point]"
16,O=C(O)c1ccc(N2CCc3ccccc32)c([N+](=O)[O-])c1,"inconclusive: 8.91 µM [inhibitor, single point]"
17,NC(=O)CC(NC(=O)Cc1cccc2ccccc12)c1ccc(NC2CC3CCC2C3)c([N+](=O)[O-])c1 (stereo not drawn),"inconclusive: 11.2 µM [inhibitor, single point]"
18,Cc1ccc(C)c(NS(=O)(=O)c2ccc3[nH]c(=O)oc3c2)c1,inactive
19,CCOC(=O)C(NC(=O)CC)(Nc1nc2c(s1)CCCC2)C(F)(F)F (stereo not drawn),inactive
20,Cn1nnnc1Sc1ncnc2scc(-c3cccs3)c12,"inconclusive: 5.01 µM [inhibitor, partial curve, poor fit]"
21,COc1ccccc1CN1CC(C(=O)N2CCC(OC)CC2)CCC1=O (stereo not drawn),"inconclusive: 31.6 µM [inhibitor, single point]"

# — PubChem BioAssay AID540303 (National Center for Advancing Translational Sciences (NCATS), 2011)
